Assay [1] has as its target T1, STOML2-Flag (Stomatin-like protein 2 with a Flag tag) (human) (UniProt Q9UJZ1).
T1 sequence: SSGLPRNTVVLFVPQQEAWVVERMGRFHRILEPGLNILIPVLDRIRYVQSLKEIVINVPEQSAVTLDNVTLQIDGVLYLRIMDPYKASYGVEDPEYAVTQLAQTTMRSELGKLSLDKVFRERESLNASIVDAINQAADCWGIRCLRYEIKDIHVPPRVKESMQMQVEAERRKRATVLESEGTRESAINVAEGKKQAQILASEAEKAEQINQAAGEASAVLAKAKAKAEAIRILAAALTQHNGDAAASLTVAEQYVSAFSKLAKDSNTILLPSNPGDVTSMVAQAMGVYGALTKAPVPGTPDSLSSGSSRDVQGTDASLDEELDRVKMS
Briefly: co-IP; SMMC-7721 cells transfected with STOML2-Flag or empty vector, CCCP treatment; immunoprecipitation with anti-Flag mAb, blot with anti-PINK1 antibody.

Chains of the proteins cited; added tags and fusions are not shown. Residues count along the entry.
UniProt Q9BXM7, residues 78-581: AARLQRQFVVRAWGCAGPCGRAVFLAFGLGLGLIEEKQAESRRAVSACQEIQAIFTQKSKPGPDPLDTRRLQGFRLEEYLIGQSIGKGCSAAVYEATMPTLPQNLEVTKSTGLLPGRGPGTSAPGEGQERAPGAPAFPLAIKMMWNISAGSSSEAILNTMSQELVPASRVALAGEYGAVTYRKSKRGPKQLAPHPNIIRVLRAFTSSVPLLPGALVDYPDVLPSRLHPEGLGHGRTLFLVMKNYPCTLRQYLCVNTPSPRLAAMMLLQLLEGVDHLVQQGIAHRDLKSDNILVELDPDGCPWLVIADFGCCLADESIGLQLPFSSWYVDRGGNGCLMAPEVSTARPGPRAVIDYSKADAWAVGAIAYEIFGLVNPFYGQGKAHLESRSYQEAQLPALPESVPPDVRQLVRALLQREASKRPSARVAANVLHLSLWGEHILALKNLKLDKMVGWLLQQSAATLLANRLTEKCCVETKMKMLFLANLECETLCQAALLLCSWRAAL

The target of assay [2] is T2, Stomatin-like protein 2 (STOML2), endogenous (human (endogenous in HCCLM3)) (UniProt Q9UJZ1).
T2 sequence: T1 sequence
Description: co-IP; endogenous STOML2 in HCCLM3 cells immunoprecipitated with anti-STOML2 antibody, rabbit IgG as nonspecific control; blot with anti-PINK1 antibody.

No constants are given. Whether binding was seen depends on the method and setting. Binding seen in cells or lysates may run through a third protein. Some results given as binding are weak or reduced against the parent protein; the word gives no strength. For some assays here: Tags and fused reporters may be left off the sequences shown.

For “PTEN-induced putative kinase 1 (PINK1) (from UniProt Q9BXM7 78-581)”, the binding result in assay [1] and in assay [2] was “binds” each time.

Values taken from publication PMC7807703.
